{"source": "patent US20130029983A1", "about": "“AMINOTHIENOPYRIDAZINE INHIBITORS OF TAU ASSEMBLY” (priority 2009, published 2013)", "note": "Some entries share one result that the patent states for a list of compounds.", "data": [{"target": "T1, tau40-promoted MT-polymerization (Homo sapiens, UniProt P10636)", "T1 construct": "Full length tau (Tau40; amino acids 1-441); made in house", "test": "MT-polymerization assay (tubulin, tau40)", "assay_type": "biochemical", "details": "FIG. 5", "values": [{"smiles": "CCNC(=O)c1nn(-c2ccc(Cl)cc2)c(=O)c2c(N)scc12", "note": "[CNDR-51365, 5-Amino-3-(4-chlorophenyl)-N-ethyl-4-oxo-3,4-dihydrothieno[3,4-d]pyridazine-1-carboxamide]", "Interference with the normal MT-stabilizing function of tau": "did not appear to interfere"}, {"smiles": "Nc1scc2c(C(=O)O)nn(-c3ccc(Cl)cc3)c(=O)c12", "note": "[CNDR-51348, 5-Amino-3-(4-chlorophenyl)-4-oxo-3,4-dihydrothieno[3,4-d]pyridazine-1-carboxylic acid]", "Interference with the normal MT-stabilizing function of tau": "did not appear to interfere"}, {"smiles": "CNC(=O)c1nn(-c2ccc(Cl)cc2)c(=O)c2c(N)scc12", "note": "[CNDR-51367, 5-Amino-3-(4-chlorophenyl)-N-methyl-4-oxo-3,4-dihydrothieno[3,4-d]pyridazine-1-carboxamide]", "Interference with the normal MT-stabilizing function of tau": "did not appear to interfere"}, {"smiles": "CN(C)C(=O)c1nn(-c2ccc(Cl)cc2)c(=O)c2c(N)scc12", "note": "[CNDR-51361, 5-Amino-3-(4-chlorophenyl)-N,N-dimethyl-4-oxo-3,4-dihydrothieno[3,4-d]pyridazine-1-carboxamide]", "Interference with the normal MT-stabilizing function of tau": "did not appear to interfere"}, {"smiles": "CCN(C)C(=O)c1nn(-c2ccc(Cl)cc2)c(=O)c2c(N)scc12", "note": "[CNDR-51366, 5-Amino-3-(4-chlorophenyl)-N-ethyl-N-methyl-4-oxo-3,4-dihydrothieno[3,4-d]pyridazine-1-carboxamide]", "Interference with the normal MT-stabilizing function of tau": "did not appear to interfere"}, {"smiles": "CC(C)NC(=O)c1nn(-c2ccc(Br)cc2)c(=O)c2c(N)scc12", "note": "[CNDR-51390, 5-Amino-3-(4-bromophenyl)-N-isopropyl-4-oxo-3,4-dihydrothieno[3,4-d]pyridazine-1-carboxamide]", "Interference with the normal MT-stabilizing function of tau": "did not appear to interfere"}, {"smiles": "CC(C)OC(=O)c1nn(-c2ccc(Cl)cc2)c(=O)c2c(N)scc12", "note": "[CNDR-51371, Isopropyl 5-amino-3-(4-chlorophenyl)-4-oxo-3,4-dihydrothieno[3,4-d]pyridazine-1-carboxylate]", "Interference with the normal MT-stabilizing function of tau": "did not appear to interfere"}, {"smiles": "CC(C)NC(=O)c1nn(-c2ccc(Cl)cc2)c(=O)c2c(N)scc12", "note": "[CNDR-51349, 5-Amino-3-(4-chlorophenyl)-N-isopropyl-4-oxo-3,4-dihydrothieno[3,4-d]pyridazine-1-carboxamide]", "Interference with the normal MT-stabilizing function of tau": "did not appear to interfere"}, {"smiles": "CCOC(=O)c1nn(-c2ccc(Cl)cc2)c(=O)c2c(N)scc12", "note": "[Compound 17, Ethyl 5-amino-3-(4-chlorophenyl)-4-oxo-3,4-dihydrothieno[3,4-d]pyridazine-1-carboxylate]", "Interference with the normal MT-stabilizing function of tau": "did not appear to interfere"}, {"smiles": "Nc1scc2c(C(=O)NC3CC3)nn(-c3ccc(Cl)cc3)c(=O)c12", "note": "[CNDR-51362, 5-Amino-3-(4-chlorophenyl)-N-cyclopropyl-4-oxo-3,4-dihydrothieno[3,4-d]pyridazine-1-carboxamide]", "Interference with the normal MT-stabilizing function of tau": "did not appear to interfere"}]}]}
